Measurements: paper PMC5999394, “Design principles of a microtubule polymerase” (eLife, 2018)

Molecular target: T1, mCherry-tagged Zyg-9 (C. elegans) (UniProt G5EEM5)
T1 sequence: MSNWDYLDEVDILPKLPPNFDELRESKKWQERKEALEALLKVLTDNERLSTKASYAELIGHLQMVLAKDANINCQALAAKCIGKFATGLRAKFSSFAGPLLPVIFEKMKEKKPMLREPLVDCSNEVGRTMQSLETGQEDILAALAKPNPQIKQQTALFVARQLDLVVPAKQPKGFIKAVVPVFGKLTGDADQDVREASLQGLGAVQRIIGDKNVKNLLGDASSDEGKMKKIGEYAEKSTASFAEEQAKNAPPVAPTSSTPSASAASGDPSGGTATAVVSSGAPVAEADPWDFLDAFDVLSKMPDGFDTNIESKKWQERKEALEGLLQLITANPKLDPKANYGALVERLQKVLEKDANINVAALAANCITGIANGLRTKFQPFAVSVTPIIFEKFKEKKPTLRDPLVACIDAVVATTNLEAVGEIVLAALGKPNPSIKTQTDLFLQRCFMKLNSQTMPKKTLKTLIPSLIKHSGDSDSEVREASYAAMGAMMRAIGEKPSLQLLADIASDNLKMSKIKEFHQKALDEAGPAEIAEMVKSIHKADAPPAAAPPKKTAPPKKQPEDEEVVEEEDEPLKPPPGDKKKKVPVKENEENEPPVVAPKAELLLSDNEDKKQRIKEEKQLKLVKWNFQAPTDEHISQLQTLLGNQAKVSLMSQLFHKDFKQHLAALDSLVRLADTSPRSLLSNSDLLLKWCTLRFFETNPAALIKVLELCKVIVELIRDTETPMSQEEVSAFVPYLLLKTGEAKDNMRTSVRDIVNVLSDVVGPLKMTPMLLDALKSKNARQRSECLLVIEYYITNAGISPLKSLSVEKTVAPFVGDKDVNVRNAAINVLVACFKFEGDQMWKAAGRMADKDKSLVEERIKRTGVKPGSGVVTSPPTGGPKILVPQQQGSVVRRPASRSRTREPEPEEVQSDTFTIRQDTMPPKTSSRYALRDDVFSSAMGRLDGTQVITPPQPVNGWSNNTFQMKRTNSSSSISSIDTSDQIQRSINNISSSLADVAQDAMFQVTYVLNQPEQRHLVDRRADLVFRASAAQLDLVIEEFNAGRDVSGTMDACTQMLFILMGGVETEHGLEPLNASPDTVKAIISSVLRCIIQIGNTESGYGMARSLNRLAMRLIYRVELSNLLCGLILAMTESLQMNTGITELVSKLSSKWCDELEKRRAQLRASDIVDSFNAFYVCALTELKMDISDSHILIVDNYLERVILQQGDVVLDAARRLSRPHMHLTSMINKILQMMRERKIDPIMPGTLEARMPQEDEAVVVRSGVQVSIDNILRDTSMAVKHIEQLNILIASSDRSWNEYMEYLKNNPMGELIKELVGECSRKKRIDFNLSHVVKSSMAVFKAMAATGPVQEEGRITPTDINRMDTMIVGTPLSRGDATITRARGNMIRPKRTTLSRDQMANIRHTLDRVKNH
Experiment: TIRF microscopy of Zyg-9-mCherry on stabilized microtubules; 50 nM Zyg-9-mCherry on unlabeled GTPγS-stabilized yeast microtubules, without or with 5 μM bovine tubulin as competing binding partner; both purified

binding: binds
Substance: bovine tubulin (unpolymerized) (complex)

Results are given in words; binding and its absence hold for the method and conditions named. Binding can be weak; no strength is given. Where a sequence is shown, tags or fusion partners need not be part of it.
